# Measurements taken from PMC12219365.
# By UniProt entry, the sequences of proteins in these tests, tags left out. Residues count along the entry.
# UniProt O00206, residues 24-839: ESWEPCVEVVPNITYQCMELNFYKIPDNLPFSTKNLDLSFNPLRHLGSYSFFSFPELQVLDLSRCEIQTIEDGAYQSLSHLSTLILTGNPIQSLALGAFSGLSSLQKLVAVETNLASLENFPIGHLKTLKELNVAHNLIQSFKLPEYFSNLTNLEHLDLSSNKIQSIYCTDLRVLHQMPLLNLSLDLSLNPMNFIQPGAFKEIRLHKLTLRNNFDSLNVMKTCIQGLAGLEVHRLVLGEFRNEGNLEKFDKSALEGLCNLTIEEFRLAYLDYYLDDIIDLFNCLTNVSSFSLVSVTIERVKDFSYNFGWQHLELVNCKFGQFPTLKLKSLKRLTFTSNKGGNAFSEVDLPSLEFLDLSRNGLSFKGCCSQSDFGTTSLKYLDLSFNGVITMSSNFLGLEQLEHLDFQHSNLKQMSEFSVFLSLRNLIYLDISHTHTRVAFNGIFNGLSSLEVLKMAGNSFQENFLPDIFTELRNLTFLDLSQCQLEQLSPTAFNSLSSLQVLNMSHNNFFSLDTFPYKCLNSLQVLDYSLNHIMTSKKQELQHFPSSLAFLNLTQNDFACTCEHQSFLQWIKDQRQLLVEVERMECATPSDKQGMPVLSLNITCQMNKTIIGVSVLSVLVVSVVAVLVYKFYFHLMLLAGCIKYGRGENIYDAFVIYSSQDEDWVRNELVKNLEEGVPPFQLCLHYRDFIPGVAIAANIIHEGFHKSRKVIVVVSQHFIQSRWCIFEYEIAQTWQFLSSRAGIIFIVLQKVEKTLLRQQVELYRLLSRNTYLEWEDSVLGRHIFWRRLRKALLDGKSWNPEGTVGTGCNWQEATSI
# UniProt Q92508: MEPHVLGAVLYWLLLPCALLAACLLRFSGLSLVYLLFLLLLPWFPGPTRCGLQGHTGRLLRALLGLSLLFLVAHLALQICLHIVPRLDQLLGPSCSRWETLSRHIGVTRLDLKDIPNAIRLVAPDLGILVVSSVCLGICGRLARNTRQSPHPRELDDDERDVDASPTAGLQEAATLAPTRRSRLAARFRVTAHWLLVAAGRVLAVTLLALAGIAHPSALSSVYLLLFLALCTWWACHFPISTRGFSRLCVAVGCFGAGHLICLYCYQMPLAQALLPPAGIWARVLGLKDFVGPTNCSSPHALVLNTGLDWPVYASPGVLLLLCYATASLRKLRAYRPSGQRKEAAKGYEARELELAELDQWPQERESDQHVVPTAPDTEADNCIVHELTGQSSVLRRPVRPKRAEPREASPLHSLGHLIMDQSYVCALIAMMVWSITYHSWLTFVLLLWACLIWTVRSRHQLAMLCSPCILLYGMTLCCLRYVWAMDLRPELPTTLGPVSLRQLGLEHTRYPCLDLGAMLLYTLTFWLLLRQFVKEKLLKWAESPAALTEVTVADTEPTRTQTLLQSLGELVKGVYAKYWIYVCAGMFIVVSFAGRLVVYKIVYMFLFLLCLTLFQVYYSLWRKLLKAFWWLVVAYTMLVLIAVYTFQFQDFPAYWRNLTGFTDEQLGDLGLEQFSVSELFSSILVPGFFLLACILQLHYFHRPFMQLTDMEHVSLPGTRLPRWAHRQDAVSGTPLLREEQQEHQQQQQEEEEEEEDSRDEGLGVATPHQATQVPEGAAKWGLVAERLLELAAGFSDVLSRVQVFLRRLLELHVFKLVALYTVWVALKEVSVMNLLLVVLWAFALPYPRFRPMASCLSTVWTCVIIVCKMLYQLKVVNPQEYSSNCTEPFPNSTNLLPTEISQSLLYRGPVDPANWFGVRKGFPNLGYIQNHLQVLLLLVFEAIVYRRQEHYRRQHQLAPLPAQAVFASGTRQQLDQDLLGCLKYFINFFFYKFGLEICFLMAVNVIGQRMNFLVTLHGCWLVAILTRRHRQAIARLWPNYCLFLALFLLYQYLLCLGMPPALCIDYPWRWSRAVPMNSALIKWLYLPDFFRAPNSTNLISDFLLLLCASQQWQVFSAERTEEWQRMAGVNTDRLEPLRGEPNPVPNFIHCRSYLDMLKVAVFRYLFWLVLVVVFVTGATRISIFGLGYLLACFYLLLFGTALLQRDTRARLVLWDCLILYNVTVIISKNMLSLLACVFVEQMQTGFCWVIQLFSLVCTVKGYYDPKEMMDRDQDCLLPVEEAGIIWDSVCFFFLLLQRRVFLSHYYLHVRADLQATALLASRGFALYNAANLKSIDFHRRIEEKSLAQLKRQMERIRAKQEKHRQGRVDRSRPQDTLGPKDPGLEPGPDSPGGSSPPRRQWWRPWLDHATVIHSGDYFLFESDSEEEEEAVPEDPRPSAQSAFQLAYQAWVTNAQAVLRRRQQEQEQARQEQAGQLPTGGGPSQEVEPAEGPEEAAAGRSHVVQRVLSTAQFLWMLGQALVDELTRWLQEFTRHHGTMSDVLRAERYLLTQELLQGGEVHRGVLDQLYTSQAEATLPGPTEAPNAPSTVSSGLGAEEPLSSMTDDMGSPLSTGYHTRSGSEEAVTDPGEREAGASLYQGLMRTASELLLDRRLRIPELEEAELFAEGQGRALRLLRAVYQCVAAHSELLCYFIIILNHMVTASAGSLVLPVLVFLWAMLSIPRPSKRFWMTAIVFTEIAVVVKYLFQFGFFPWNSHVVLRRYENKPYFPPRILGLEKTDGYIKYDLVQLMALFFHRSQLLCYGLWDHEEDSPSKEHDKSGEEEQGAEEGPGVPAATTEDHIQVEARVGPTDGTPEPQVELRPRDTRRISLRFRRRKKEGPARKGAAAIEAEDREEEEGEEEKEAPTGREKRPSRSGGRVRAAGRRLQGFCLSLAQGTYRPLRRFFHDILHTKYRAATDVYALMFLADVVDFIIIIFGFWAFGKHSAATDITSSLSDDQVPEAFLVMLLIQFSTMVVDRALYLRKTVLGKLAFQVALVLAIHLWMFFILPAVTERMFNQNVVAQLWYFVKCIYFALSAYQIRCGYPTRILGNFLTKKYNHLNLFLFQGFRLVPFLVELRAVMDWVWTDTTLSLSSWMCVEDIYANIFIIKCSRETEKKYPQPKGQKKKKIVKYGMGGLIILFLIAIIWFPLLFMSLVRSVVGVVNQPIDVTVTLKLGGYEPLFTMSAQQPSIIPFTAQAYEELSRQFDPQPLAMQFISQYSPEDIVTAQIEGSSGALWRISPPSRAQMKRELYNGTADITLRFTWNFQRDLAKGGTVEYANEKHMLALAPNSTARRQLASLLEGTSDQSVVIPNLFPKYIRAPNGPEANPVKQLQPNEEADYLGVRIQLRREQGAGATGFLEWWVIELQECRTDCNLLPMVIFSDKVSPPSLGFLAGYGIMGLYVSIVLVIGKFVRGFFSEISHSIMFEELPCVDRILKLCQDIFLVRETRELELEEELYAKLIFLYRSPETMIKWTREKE
# No constants are given. Whether binding was seen depends on the method and setting. In cells and extracts the contact can be indirect. Some binding calls cover weakened binding; strength is not graded here.
# Molecular target: toll-like receptor 4 (TLR4) (human (endogenous in BON-1)) (UniProt O00206)
# Assay: co-IP; RIPA lysate of BON-1 cells treated with or without LPS; TLR4 antibody, magnetic beads (co-immunoprecipitation kit); TLR4 and PIEZO1 detected by SDS-PAGE and western blot
substance,measurement,value
Piezo-type mechanosensitive ion channel component 1 (PIEZO1) (from UniProt Q92508 1-2521),binding,binds
